From patent US20230272089A1 (SYNTHEKINE, published 2023) come the findings set out here.

The assay concerns the target T1, mIL2Rg ECD antigen (mouse) (UniProt P34902).
T1 sequence: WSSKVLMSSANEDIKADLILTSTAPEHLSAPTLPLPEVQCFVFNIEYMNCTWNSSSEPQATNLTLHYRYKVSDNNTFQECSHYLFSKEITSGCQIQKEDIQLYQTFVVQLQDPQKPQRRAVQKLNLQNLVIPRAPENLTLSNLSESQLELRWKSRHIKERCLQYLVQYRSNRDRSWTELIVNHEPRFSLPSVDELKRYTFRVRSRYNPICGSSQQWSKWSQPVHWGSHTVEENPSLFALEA
The assay is described as follows: periplasmic extract ELISA (PE-ELISA) of phage clones after biopanning.

These are yes or no findings as the source states them, for the method shown. Some results given as binding are weak or reduced against the parent protein; the word gives no strength.

B1: mIL2Rg_VHH13 (VHH, not shown: large carriers)
VHH: QVQLQESGGGSVLAGGSLRLSCVASGYGYNYIGWFRQTPGKEREGVAVIYTGGGDTYYADSVKGRFTASRDNAKSTLYLQMNSLEPEDTAMYYCVARYCVGSVYACLRGGHDEYAHWGQGTQVTVSS
Consider B1, for which the binding result was “binds”.
